According to PubChem BioAssay AID2685 (National Center for Advancing Translational Sciences (NCATS), 2010):
The list shows a part of the results. These are further read-outs of the screen, such as a control signal, another cell line or another target. No call is given for them. Most of these compounds were active or inconclusive in the main read-out, so they are no random draw. The note in brackets gives the kind of curve behind each potency; many fits are weak.

Assay: qHTS Assay for Lipid Storage Modulators in Drosophila S3 Cells;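 as to cell number change: cells counted by Cell Tracker Red CMTPX staining in the red channel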
Details: BODIPY lipid droplet fluorescence, 18-24 h; for cell number change: measured here: cell count max response, cells fed with added oleic acid
Procedure, shortened: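 Drosophila S3 cells loaded with oleic acid (400 uM, as added) and compounds at several concentrations; lipid droplets imaged by 488-nm laser-scanning cytometry, 500–530 nm intensity and object ratio to cell channel. Percent activity normalized to 20 uM Triacsin C.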

[1] = measured here: lipid fluorescence (Fed channel) AC50, cells fed with added oleic acid
[2] = measured here: cell number channel AC50, cells fed with added oleic acid

SMILES	cell number change [%]	AC50 [1]	AC50 [2]
Cc1ccc(C(=O)NCC(=O)NCC(=O)OCc2ccc(F)cc2)cc1	-4.41	1.03 µM [falling, single point]	
COC(=O)c1c(NC(=O)COC(=O)c2ccc(NC(=O)CC#N)cc2)sc2c1CCCCC2	10.5	0.00517 µM [falling, full curve, poor fit]	
Cc1ccc(S(=O)(=O)Nc2c(O)c3ccccc3oc2=O)cc1	19.2		
CCOC(=O)c1c(C)[nH]c(C(=O)CN(C)CC(=O)Nc2ccccc2C(F)(F)F)c1C	25.7	6.51 µM [falling, single point]	
Cc1ccc(C(=O)NCCNC(=O)c2ccc(C)nc2)cc1	15.5	29.1 µM [rising, single point]	0.0291 µM [rising, full curve, poor fit]
COc1ccc(NC(C)c2cc(Cl)ccc2O)cc1 (stereo unspecified)	-125	29.1 µM [falling, single point]	29.1 µM [falling, single point]
CC(C)(C)C(=O)COC(=O)c1c2c(nc3ccccc13)CCC2		0.116 µM [falling, single point]	
CCCn1c(SCC(=O)Nc2cc(S(=O)(=O)N3CCOCC3)ccc2Cl)n[nH]c1=O		29.1 µM [rising, single point]	
COc1cc(CNCCc2ccccc2F)ccc1OCC(=O)N1CCCCC1	8.72	13 µM [falling, partial curve]	
Cc1ccc(C)c(NS(=O)(=O)c2cc(C(=O)NCc3ccncc3)ccc2C)c1	15.3	0.58 µM [rising, single point]	
Cc1ccccc1C(=O)NNC(=O)C1CCN(C(=O)Nc2ccccc2)CC1	-99.2	8.2 µM [falling, partial curve]	2.06 µM [falling, partial curve]
O=C(Cc1ccccc1)Nc1nnc(-c2ccco2)o1	-5.13		
COc1cc(OC)cc(C(=O)NCCCn2ccnc2)c1	-4.46	3.26 µM [rising, full curve, poor fit]	
COc1ccc(S(=O)(=O)N2CCC(C(=O)NCC(c3cccs3)N(C)C)CC2)cc1 (stereo unspecified)	1.44		
O=C(CSc1nc(=O)n2ccccc2n1)N1CCC(Cc2ccccc2)CC1	6.6	0.103 µM [rising, full curve, poor fit]	
CC1=C(C(=O)Nc2cc(-c3cccc(F)c3)[nH]n2)C2(CCCCC2)OC1=O	-38		25.9 µM [falling, single point]
Cc1cccc(-c2noc(CCCC(=O)Nc3cccnc3)n2)c1	-4.31		
CCN(c1ccccc1)S(=O)(=O)c1ccc(C(=O)Nc2ncccc2C)cc1	41.2	0.0517 µM [rising, full curve, poor fit]	0.0259 µM [rising, full curve]
CC(C)C(OC(=O)CCCC(=O)Nc1nccs1)C(=O)NC1CCCCC1 (stereo unspecified)	-11.2	29.1 µM [falling, single point]	
O=C(Cc1ccccc1F)Nc1ccccc1N1CCCC1	21.1	29.1 µM [rising, single point]	

SMILES	cell number change [%]	AC50 [1]	AC50 [2]
CCC(=O)Nc1cc(C(=O)OCC(=O)c2ccccc2Cl)ccc1C	-14.7	6.51 µM [falling, single point]	
Cc1cc(C)cc(C(=O)NCC(=O)NCCc2c[nH]c3ccccc23)c1	18.4	35.5 µM [falling, partial curve, poor fit]	
CN(c1ccccc1)S(=O)(=O)c1cc(C(=O)OCC(N)=O)ccc1Cl	-47	29.1 µM [falling, single point]	
COc1cc(-c2csc(NC3CCCCC3)n2)cc(OC)c1OC	9.46		
CN(C)c1ccc(/C=C(\NC(=O)c2ccccc2)C(=O)NCCN2CCOCC2)cc1	9.24	0.206 µM [falling, single point]	
CCNC(=S)N1CCc2cc(OC)c(OC)cc2C1COc1ccc(F)cc1 (stereo unspecified)	-44.5		29.1 µM [falling, single point]
COc1ccccc1NC(=O)Nc1ccc(C)cn1	10.5	0.58 µM [rising, single point]	
CNC(=S)N1CCc2sccc2C1C (stereo unspecified)	-28.7	29.1 µM [falling, single point]	
Cc1cc(C)c(C(=O)OCc2csc(CC(=O)Nc3ccccc3C)n2)c(C)c1	-15.5	29.1 µM [falling, single point]	
CCOC(=O)C(C)Sc1nnc(Cc2cc(=O)[nH]c(=O)[nH]2)n1-c1ccc(OCC)cc1 (stereo unspecified)	-4.56		
CCOc1ccccc1N1CCN(C(=O)CNC(=O)c2sc3ccccc3c2Cl)CC1		0.58 µM [rising, single point]	
CCCCNC(=O)N(O)C1N(/N=C/c2ccccc2F)C(=S)SC1(C)C (stereo unspecified)	-10.2	0.092 µM [falling, full curve, poor fit]	
CSCCC(NC(=O)c1ccc(Cl)cc1Cl)C(=O)OC(C)C(=O)NCc1ccco1 (stereo unspecified)			0.58 µM [falling, single point]
O=C(c1nc[nH]c1C(=O)N1CCN(c2ccccc2)CC1)N1CCN(c2ccccc2)CC1	-42.9		0.184 µM [falling, full curve]
Cc1ccc(S(=O)(=O)c2nnn3c2nc(N2CCN(c4ccccn4)CC2)c2ccccc23)cc1C	-9.54	2.31 µM [rising, partial curve, poor fit]	
O=C(NCCCn1ccnc1)Nc1ccc(Cl)c(Cl)c1	7.3		
CSc1ccccc1C(=O)NCCSc1ccc(C)cc1	-3.41	18.4 µM [falling, single point]	6.51 µM [falling, single point]
OC(Cn1cncn1)c1ccc(Cl)cc1Cl (stereo unspecified)	5.09	0.411 µM [rising, full curve, poor fit]	
CN1CCN(NC(=O)COc2cccc(C(F)(F)F)c2)CC1	10.9	0.651 µM [falling, partial curve]	0.82 µM [falling, full curve]
CCCc1c(C)[nH]c2ccccc2c1=O	62	32.6 µM [falling, partial curve, poor fit]	29.1 µM [rising, single point]
